Source: paper PMC4525203

T1: Cdx2 (mouse) (UniProt P43241)
T1 sequence: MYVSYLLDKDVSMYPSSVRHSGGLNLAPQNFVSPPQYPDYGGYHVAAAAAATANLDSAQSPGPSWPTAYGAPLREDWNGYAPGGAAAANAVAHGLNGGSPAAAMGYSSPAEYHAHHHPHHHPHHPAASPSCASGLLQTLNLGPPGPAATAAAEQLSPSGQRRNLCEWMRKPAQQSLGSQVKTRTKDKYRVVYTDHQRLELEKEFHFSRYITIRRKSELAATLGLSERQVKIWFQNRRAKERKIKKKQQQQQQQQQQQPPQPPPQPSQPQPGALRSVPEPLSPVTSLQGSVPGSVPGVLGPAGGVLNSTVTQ

T2: C-terminally 3xFlag-tagged Esrrb (oestrogen-related receptor beta) (mouse) (UniProt Q61539)
T2 sequence: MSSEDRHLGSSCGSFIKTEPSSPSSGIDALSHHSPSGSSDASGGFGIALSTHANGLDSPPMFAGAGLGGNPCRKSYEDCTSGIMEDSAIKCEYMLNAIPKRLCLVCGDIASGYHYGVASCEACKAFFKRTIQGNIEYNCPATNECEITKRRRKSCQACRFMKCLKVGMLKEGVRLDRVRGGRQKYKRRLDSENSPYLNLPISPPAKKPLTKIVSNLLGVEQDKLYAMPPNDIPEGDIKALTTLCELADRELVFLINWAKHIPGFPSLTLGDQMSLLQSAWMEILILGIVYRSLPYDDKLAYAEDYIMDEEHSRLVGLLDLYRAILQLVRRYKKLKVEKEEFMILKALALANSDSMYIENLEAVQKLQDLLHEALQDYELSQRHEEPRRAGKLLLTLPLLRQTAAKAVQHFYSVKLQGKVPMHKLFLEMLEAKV


Tests used:
Cdx2 (mouse) = molecular target: T1, Cdx2 (mouse); assay: co-IP + affinity purification with mass spectrometry; Cdx2 co-immunoprecipitation from TS cells followed by either western blot or mass spectrometry
[1] = molecular target: T2, C-terminally 3xFlag-tagged Esrrb (oestrogen-related receptor beta) (mouse); assay: affinity purification with mass spectrometry; anti-FLAG M2 agarose IP of Esrrb-3xFlag from TS cell nuclear extract dialysed to buffer D (20 mM Hepes pH 7.6, 20% glycerol, 100 mM KCl, 1.5 mM MgCl2, 0.2 mM EDTA), 3 h at 4 °C with Benzonase, elution with FLAG-tripeptide, LC-MS/MS; two biological replicates against vector control

binding (Cdx2 (mouse))	binding [1]	Binder
	binds	Zinc-finger protein 143 (protein, UniProt O70230 1-638) MLLAQINRDSQGMTEFPGGGMEAQHVTLCLTEAVTVADGDNLENMEGVSLQAVTLADGSTAYIQHNSKDGRLIDGQVIQLEDGSAAYVQHVPIPKSTGDSLRLEDGQAVQLEDGTTAFIHHTSKDSYDQSSLQAVQLEDGTTAYIHHAVQVPQSDTILAIQADGTVAGLHTGDATIDPDTISALEQYAAKVSIDGSDGVTSTGMIGENEQEKKMQIVLQGHATRVTPKSQQSGEKAFRCKYDGCGKLYTTAHHLKVHERSHTGDRPYQCEHSGCGKAFATGYGLKSHFRTHTGEKPYRCSEDNCTKSFKTSGDLQKHIRTHTGERPFKCPIEGCGRSFTTSNIRKVHIRTHTGERPYYCTEPGCGRAFASATNYKNHVRIHTGEKPYVCTVPGCDKRFTEYSSLYKHHVVHTHSKPYNCNHCGKTYKQISTLAMHKRTAHNDTEPIEEEQEAFFEPPPGQGDDVLKGSQITYVTGVDGEDIVSTQVATVTQSGLSQQVTLISQDGTQHVNISQADMQAIGNTITMVTQDGTPITVPTHDAVISSAGTHSVAMVTAEGTEGQQVAIVAQDLAAFHTASSEMGHQQHSHHLVTTETRPLTLVATSNGTQIAVQLGEQPSLEEAIRIASRIQQGETPGLDD
	binds	Ribosomal biogenesis protein LAS1L (protein, UniProt A2BE28 1-776) MDRVWRAWDGQSFKENQPESPSARGIVVSWLSRAEWEQVTVYLFCDDHKLQQYALNRITVWRSRLGNELPLAVASTADLVRCKLIDAAGTLGTDELRLLYGMALVRFVNLISERKTKCSNLPLKYLAQEVNIPDWIVELRHNLTHKKMPHINECRRGCYFVLNWLQKTYWSRQLEGSLKETWELDEDQLDAEDPEEEEREIIADDVLEEIPEPQDDDKDEELAVEDDANTKGNEEVASHPEPSSRHKELYEKARELLVSYEEEQFKVLEKHRHLLQAIKVWNNLSPRVQCILEELKSISWENRDAVLDAFLDDGFLIPTFEQLAALQIEYEDGQTEVQKGEVTEPNSHKNIDLNEVLVPKPFSQFWQPLLRGLHSQTFTQALLERMFSELSTVGSTGIRPTYILRWTVELIVANTKTGRNARRFSASQWEARKSWRLFNCSATLDWPQVIESCLGSPCWASPQLLQVVFKAMGQVLPDEEQEKLLRVCSIYTQNGENGLAKAIEGSSSSSTGKAPYTLDTLHEDLQPPGTNCESEESIQQKEQGNLKDVKQEEKKENEEEEKEEEEMEEEEEEEEEEKEEEEEEQEQEEHQEEEQEEEEEEENQKVFQDQMEADVEESDDVEEEEEVDDEEEDEDDDYDDDEEEDRMEVGAFSLAQGSSVFENTRTTSRKREALQGSAWQVSSEDVRWGTFPLGRLPGQTEDPAELMLDNYDTMYLLDQPVIEHRLEPQKSKSSTLSLCCGGSNTNSSSSSSSGNMEGLLWNQGQMHGLKAGLQLF

The remaining lines, values behind:

Binder	binding (Cdx2 (mouse))	binding [1]
Eomes (protein, UniProt O54839 1-707) MQLGEQLLVSSVNLPGAHFYSLESARGGGGGGGGGGGGGGGSVSLLPGAAPSPQRLDLDKASKKFPGSLPCQAGSAEPAGAGAGAPAAMLSDADAGDTFGSTSAVAKPGPPDGRKGSPCAEEELPSAATAAATARYSMDSLSSERYYLPSPGPQGSELAAPCSLFQYPAAAGAAHGPVYPASNGARYPYGSMLPPGGFPAAVCPPARAQFGPAAGSGSGAGSSGGGAGGPGAYPYGQGSPLYGPYAGTSAAGSCGGLGGLGVPGSGFRAHVYLCNRPLWLKFHRHQTEMIITKQGRRMFPFLSFNINGLNPTAHYNVFVEVVLADPNHWRFQGGKWVTCGKADNNMQGNKMYVHPESPNTGSHWMRQEISFGKLKLTNNKGANNNNTQMIVLQSLHKYQPRLHIVEVTEDGVEDLNEPSKTQTFTFSETQFIAVTAYQNTDITQLKIDHNPFAKGFRDNYDSMYTASENDRLTPSPTDSPRSHQIVPGGRYGVQNFFPEPFVNTLPQARYYNGERTVPQTNGLLSPQQSEEVANPPQRWLVTPVQQPVTNKLDIGSYESEYTSSTLLPYGIKSLPLQTSHALGYYPDPTFPAMAGWGGRGAYQRKMAAGLPWTSRMSPPVFPEDQLAKEKVKEEISSSWIETPPSIKSLDSSDSGVYNSACKRKRLSPSTPSNGNSPPIKCEDINTEEYSKDTSKGMGAYYAFYTSP	binds	
Alpha-globin transcription factor CP2 (protein, UniProt Q9ERA0 1-502) MAWALKLPLADEVIESGLVQDFDASLSGIGQELGAGAYSMSDVLALPIFKQEESSLPPDNENEILPFQYVLCAATSPAVKLHDETLTYLNQGQSYEIRMLDNRKLGELPELNGKLVKSIFRVVFHDRRLQYTEHQQLEGWRWNRPGDRILDIDIPMSVGVIDPRANPTQLNTVEFLWDPSKRTSVFIQVHCISTEFTMRKHGGEKGVPFRVQIDTFKENGNGEYTEHLHSASCQIKVFKPKGADRKQKIDREKMEKRTPHEKEKYQPSYETTILTECSPWPEITYVNNSPSPGFNSSHSSFSLGEGNGSPNHQPEPPPPVTDNLLPTTTPQEAQQWLHRNRFSTFTRLFTNFSGADLLKLTRDDVIQICGPADGIRLFNALKGRMVRPRLTIYVCQESLQLREQQPQPQPQPQKQEDGDSNGTFFVYHAIYLEELTAVELTEKIAQLFSISPHQISQIYKQGPTGIHVVISDEMVQNFQEEACFILDTMEAETSDSYHVILK	binds	binds

No constants are given. Whether binding was seen depends on the method and setting. In cells and extracts the contact can be indirect. Here binding means that the protein was enriched with, or labelled near, the bait; the list need not be complete. For some assays here: Where a sequence is shown, tags or fusion partners need not be part of it.
